# Measured values published in the supplement of paper PMC10849652.
# Protein sequences, listed by entry. Tags and fused reporters are not part of them. Lines headed by an entry give the natural chain unless they say otherwise; changes in a name come on top.
# UniProt Q9H4A4: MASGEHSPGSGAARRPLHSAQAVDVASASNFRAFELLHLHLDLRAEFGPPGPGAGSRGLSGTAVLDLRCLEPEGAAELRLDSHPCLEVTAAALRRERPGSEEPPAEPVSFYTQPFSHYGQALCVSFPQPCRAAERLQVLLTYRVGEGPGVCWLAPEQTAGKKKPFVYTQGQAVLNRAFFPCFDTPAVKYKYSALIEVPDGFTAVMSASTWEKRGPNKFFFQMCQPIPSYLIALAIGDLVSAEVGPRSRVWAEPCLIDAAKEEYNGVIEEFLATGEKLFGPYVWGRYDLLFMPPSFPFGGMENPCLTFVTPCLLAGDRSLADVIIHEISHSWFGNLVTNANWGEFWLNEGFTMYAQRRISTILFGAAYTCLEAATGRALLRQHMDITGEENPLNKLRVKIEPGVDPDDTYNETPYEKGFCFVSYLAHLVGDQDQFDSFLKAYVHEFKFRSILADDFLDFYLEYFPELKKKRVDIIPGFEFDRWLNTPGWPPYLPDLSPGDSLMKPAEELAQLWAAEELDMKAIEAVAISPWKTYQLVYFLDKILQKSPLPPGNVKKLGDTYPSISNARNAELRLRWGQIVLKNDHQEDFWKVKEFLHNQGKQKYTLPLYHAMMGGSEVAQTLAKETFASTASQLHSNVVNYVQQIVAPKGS
# UniProt Q9P2E9: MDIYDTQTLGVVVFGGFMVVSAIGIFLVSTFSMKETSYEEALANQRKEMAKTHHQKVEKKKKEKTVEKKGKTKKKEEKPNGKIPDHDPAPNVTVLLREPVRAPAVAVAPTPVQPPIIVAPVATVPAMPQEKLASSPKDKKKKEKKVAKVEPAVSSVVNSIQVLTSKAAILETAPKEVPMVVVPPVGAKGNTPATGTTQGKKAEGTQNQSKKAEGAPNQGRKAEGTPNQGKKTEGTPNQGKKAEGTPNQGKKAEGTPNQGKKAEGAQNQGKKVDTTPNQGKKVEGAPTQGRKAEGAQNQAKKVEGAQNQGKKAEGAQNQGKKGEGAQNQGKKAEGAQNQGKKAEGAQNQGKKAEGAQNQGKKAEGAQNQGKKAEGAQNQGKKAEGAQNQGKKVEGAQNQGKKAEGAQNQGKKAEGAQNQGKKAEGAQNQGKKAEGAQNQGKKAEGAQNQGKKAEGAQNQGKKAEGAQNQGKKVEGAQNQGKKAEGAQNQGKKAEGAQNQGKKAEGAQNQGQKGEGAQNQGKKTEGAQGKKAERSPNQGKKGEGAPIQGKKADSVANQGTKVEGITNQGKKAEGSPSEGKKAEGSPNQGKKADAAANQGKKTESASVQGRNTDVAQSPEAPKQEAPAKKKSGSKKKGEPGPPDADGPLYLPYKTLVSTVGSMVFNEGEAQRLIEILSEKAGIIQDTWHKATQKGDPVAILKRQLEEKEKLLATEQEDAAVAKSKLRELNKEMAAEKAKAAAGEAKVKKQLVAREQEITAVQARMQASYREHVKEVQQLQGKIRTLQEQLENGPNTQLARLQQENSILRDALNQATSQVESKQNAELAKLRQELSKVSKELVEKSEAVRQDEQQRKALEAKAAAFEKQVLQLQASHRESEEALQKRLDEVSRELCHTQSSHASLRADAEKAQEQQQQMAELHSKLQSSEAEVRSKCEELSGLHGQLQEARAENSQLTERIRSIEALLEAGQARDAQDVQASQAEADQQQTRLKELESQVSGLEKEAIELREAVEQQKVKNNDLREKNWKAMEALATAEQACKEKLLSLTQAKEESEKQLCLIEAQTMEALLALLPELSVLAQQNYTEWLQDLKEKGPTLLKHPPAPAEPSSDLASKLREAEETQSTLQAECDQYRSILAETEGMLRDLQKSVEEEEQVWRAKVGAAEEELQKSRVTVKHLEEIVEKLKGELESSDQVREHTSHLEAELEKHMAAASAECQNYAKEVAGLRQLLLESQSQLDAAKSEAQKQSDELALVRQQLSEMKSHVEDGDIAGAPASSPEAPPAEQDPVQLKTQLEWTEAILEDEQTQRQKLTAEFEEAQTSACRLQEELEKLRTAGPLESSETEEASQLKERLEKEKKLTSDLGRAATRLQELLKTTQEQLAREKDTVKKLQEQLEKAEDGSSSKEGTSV
# UniProt Q9BWH6: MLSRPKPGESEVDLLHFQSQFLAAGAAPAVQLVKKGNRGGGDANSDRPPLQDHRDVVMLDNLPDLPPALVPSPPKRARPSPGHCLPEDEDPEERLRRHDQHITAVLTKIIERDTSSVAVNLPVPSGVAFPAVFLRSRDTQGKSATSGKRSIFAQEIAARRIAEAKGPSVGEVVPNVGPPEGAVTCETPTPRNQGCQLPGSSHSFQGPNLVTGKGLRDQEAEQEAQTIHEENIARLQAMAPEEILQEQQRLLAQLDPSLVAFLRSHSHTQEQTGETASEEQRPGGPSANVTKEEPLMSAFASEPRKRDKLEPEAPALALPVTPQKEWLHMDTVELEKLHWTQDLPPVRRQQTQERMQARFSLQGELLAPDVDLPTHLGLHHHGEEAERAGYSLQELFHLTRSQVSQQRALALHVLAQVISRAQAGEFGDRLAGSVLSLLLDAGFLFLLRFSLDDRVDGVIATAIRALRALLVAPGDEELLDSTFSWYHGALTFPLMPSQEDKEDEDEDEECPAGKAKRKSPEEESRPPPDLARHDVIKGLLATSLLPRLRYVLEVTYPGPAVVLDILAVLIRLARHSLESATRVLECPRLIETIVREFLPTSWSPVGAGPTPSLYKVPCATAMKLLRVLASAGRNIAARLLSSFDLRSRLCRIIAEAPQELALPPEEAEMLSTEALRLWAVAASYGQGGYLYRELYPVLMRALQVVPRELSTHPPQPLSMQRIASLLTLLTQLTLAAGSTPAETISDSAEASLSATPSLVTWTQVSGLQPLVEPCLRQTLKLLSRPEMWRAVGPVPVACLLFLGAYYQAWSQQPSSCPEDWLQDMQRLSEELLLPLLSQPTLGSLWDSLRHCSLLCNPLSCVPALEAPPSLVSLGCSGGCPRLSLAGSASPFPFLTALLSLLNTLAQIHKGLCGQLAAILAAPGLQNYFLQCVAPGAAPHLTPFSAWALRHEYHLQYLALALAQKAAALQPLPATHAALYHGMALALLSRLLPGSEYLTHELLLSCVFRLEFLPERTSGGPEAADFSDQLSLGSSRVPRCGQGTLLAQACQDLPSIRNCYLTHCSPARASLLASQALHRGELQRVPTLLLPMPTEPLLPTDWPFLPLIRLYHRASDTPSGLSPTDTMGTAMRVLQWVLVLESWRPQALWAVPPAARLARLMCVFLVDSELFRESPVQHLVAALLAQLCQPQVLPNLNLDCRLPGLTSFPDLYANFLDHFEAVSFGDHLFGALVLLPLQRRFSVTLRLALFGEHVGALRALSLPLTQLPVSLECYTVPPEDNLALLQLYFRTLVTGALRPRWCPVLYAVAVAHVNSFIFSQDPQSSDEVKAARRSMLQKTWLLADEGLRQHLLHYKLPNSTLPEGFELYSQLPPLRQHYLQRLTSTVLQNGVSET
# UniProt O43148, whole entry, looked up: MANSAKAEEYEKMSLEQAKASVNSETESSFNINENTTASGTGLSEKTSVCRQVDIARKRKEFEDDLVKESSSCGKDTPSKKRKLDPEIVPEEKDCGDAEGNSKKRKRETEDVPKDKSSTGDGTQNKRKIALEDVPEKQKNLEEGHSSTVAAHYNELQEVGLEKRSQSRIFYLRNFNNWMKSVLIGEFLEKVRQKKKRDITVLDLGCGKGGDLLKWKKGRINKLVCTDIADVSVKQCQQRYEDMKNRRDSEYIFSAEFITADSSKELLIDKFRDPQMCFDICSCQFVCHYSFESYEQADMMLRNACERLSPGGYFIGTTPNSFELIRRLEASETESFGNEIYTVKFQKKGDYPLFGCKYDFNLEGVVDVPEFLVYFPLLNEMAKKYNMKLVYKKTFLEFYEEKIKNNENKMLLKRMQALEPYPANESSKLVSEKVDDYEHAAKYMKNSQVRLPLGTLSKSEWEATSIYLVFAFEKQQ
# UniProt Q9H6T3, whole entry, looked up: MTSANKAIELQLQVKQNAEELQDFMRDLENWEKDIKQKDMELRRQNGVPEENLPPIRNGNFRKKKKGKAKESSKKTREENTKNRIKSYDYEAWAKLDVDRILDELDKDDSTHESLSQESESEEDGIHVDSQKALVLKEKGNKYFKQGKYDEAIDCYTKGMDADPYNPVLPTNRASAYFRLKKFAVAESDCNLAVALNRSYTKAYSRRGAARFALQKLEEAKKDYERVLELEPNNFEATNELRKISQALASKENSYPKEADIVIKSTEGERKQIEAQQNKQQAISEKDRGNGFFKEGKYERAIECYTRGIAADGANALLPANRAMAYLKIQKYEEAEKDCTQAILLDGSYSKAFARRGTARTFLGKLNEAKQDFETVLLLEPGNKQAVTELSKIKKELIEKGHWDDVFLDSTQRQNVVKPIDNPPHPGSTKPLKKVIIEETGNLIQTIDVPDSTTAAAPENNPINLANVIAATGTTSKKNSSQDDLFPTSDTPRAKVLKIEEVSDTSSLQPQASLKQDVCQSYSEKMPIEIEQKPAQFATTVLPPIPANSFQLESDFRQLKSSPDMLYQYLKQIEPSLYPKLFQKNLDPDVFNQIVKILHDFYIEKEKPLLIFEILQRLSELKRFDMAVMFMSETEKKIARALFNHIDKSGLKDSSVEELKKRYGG
# UniProt O75818: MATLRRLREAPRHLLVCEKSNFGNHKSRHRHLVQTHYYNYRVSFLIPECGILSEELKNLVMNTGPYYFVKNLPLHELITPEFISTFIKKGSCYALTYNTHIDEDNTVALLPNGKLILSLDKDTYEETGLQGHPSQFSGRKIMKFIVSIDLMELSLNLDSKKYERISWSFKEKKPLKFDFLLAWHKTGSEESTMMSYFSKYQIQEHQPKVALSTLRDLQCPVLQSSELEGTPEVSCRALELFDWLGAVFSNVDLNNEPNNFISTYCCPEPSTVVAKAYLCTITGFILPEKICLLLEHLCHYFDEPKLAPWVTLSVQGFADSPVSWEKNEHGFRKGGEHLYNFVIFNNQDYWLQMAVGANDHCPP
# UniProt P78345: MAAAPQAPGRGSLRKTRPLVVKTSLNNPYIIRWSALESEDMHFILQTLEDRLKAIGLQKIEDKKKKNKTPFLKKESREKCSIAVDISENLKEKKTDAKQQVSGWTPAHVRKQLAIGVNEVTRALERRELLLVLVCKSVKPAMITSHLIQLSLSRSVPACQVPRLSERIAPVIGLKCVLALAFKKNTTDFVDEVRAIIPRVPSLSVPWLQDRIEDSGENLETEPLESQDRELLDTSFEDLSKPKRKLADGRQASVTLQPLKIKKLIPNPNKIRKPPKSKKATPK
# UniProt O75695: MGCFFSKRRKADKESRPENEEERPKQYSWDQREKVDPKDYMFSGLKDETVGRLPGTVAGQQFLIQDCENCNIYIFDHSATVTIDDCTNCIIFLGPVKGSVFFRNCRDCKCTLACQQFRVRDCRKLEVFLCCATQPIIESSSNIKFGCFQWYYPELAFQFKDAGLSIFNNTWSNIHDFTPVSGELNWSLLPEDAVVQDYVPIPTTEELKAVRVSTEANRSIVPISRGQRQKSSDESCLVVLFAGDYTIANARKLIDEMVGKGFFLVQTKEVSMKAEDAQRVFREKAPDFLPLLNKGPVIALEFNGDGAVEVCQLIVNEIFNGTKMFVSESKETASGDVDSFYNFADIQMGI
# UniProt Q7LG56, whole entry, looked up: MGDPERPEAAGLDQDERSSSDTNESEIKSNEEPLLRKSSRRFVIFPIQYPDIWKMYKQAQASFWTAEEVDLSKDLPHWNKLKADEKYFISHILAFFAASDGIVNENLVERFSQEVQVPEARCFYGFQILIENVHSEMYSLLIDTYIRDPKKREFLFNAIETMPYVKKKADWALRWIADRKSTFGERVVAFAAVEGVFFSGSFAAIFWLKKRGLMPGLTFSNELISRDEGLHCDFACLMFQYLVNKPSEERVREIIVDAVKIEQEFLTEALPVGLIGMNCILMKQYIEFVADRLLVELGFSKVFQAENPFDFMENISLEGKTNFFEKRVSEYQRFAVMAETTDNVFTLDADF
# UniProt Q15287: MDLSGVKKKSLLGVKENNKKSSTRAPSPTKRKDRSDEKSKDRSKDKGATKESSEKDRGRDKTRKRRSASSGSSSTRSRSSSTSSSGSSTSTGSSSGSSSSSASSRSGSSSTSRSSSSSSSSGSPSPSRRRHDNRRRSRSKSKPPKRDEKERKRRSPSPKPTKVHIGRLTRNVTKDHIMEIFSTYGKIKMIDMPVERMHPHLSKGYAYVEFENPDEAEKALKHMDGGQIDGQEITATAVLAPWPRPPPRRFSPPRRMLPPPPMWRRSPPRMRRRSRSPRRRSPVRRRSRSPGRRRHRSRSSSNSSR
# UniProt Q8TA86: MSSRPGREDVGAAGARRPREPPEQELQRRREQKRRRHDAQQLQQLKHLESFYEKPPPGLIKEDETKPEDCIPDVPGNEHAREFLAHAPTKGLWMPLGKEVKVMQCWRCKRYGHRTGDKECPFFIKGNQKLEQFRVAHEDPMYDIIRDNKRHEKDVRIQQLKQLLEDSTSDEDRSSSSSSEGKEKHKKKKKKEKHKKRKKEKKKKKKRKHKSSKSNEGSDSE
# This is one part of the list.
# Experiments:
# Experiment in all cases: log2 fold change, soluble protein after heating vs DMSO (PISA); higher = thermal stabilisation; K562 cells, 10 uM, 30 min; active = over 0.2 and 3.5 SD of the protein, either way, in both replicates (recomputed)
# [1] = compound: COC1=CC=C(C=C1)CN2C=CC3=C2C=C(C=C3)C(=O)NO
# Outline: (§1)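 Soluble protein was defined as the supernatant after 21,000xg for 90 min. It came from K562 cells at 2×10^6 cells/mL given 10 μM compound for 30 min, heated in aliquots for 3 min across 48°C-58°C, pooled, and extracted in PBS with 0.5% NP-40 at 4°C, and was quantified by TMTpro 16plex LC-MS/MS with equalised channel sums. Thermal stability against control samples, from duplicates, is reported as log2 fold change.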
# [2] = compound: CON(C)C(=O)N1N=C(c2cc(F)ccc2F)S[C@@]1(CCCN)c1ccccc1 [filanesib]
# Outline: as §1
# [3] = compound: CO[C@H]1C[C@@H]2CC[C@@H](C)[C@@](O)(O2)C(=O)C(=O)N2CCCC[C@H]2C(=O)O[C@H]([C@H](C)C[C@@H]2CC[C@H](n3cnnn3)[C@H](OC)C2)CC(=O)[C@H](C)/C=C(\C)[C@@H](O)[C@@H](OC)C(=O)[C@H](C)C[C@H](C)/C=C/C=C/C=C/1C [zotarolimus]
# Outline: as §1
# [4] = compound: COc1cc(C(=O)O)ccc1NC(=O)[C@@H]1N[C@@H](CC(C)(C)C)[C@](C#N)(c2ccc(Cl)cc2F)[C@H]1c1cccc(Cl)c1F [idasanutlin]
# Outline: as §1
# [5] = compound: COc1cc(Nc2ncc3c(n2)-c2ccc(Cl)cc2C(c2c(F)cccc2OC)=NC3)ccc1C(=O)O [alisertib]
# Outline: as §1
# [6] = compound: COc1cc2nc(-c3cc(F)ccc3O)nc(N[C@@H]3CNC[C@H]3C(C)(C)O)c2cc1OC
# Outline: as §1
# [7] = compound: COc1cc2ncnc(Nc3ccc(F)c(Cl)c3)c2cc1OCCCN1CCOCC1 [gefitinib]
# Outline: as §1
# [8] = compound: COc1cccc2cc(-c3nc([C@H]4CC[C@H](C(=O)O)CC4)n4ncnc(N)c34)[nH]c12
# Outline: as §1
# [9] = compound: CS(=O)(=O)CCNCc1ccc(-c2ccc3ncnc(Nc4ccc(OCc5cccc(F)c5)c(Cl)c4)c3c2)o1 [lapatinib]
# Outline: as §1
# [10] = compound: CS(=O)(=O)N1CCN(Cc2cc3nc(-c4cccc5[nH]ncc45)nc(N4CCOCC4)c3s2)CC1 [pictilisib]
# Outline: as §1
Target,log2 fold change [1],log2 fold change [2],log2 fold change [3],log2 fold change [4],log2 fold change [5],log2 fold change [6],log2 fold change [7],log2 fold change [8],log2 fold change [9],log2 fold change [10]
RPL35 (UniProt P42766),inactive: -0.063,inactive: 0.493,inactive: -0.015,inactive: 0.182,inactive: -0.193,inactive: -0.082,inactive: -0.066,inactive: -0.315,inactive: 0.078,inactive: -0.165
RPL4 (UniProt P36578),inactive: -0.085,inactive: 0.791,inactive: 0.016,inactive: 0.376,inactive: -0.201,inactive: -0.201,inactive: -0.091,inactive: -0.427,inactive: 0.431,inactive: -0.246
RNPEP (UniProt Q9H4A4),inactive: 0.008,inactive: -0.083,inactive: 0.044,inactive: -0.02,inactive: -0.018,inactive: -0.009,inactive: -0.023,inactive: 0,inactive: 0.043,inactive: 0.008
RPL23 (UniProt P62829),inactive: -0.034,inactive: 0.281,inactive: -0.002,inactive: 0.169,inactive: -0.136,inactive: 0.019,inactive: -0.054,inactive: -0.315,inactive: 0.099,inactive: -0.127
RPL3 (UniProt P39023),inactive: -0.131,inactive: 0.788,inactive: 0.01,inactive: 0.337,inactive: -0.185,inactive: -0.141,inactive: -0.065,inactive: -0.48,inactive: 0.344,inactive: -0.277
RPL32 (UniProt P62910),inactive: -0.037,inactive: 0.477,inactive: 0.055,inactive: 0.255,inactive: -0.109,inactive: -0.18,inactive: -0.093,inactive: -0.378,inactive: 0.312,inactive: -0.581
RRBP1 (UniProt Q9P2E9),inactive: -0.104,inactive: 0.589,inactive: 0.01,inactive: 0.224,inactive: -0.057,inactive: -0.05,inactive: -0.05,inactive: -0.203,inactive: 0.185,inactive: -0.201
RPS24 isoform 4 (UniProt P62847),inactive: -0.075,inactive: 0.313,inactive: -0.034,inactive: 0.12,inactive: -0.072,inactive: -0.055,inactive: -0.029,inactive: -0.22,inactive: 0.111,inactive: -0.128
RPL26 (UniProt P61254),inactive: -0.068,inactive: 0.147,inactive: 0.064,inactive: 0.196,inactive: -0.276,inactive: -0.117,inactive: -0.147,inactive: -0.558,inactive: 0.22,inactive: -0.661
RPS6KA2 isoform 2 (UniProt Q15349),inactive: -0.023,inactive: -0.006,inactive: 0.016,inactive: -0.033,inactive: -0.052,inactive: -0.259,inactive: -0.078,inactive: 0.001,inactive: -0.011,inactive: -0.106
RPL5 (UniProt P46777),inactive: -0.031,inactive: 0.323,inactive: 0.001,inactive: 0.163,inactive: -0.097,inactive: -0.19,inactive: 0.006,inactive: -0.215,inactive: 0.129,inactive: -0.062
ROCK1 (UniProt Q13464),inactive: 0.037,inactive: -0.028,inactive: 0.003,inactive: -0.005,inactive: 0.067,active: 0.246,inactive: -0.012,inactive: -0.005,inactive: 0.012,inactive: -0.012
RPS6 (UniProt P62753),inactive: -0.093,inactive: 0.528,inactive: 0.073,inactive: 0.091,inactive: -0.116,inactive: -0.27,inactive: -0.054,inactive: -0.342,inactive: 0.311,inactive: -0.156
RPAP1 (UniProt Q9BWH6),inactive: -0.028,inactive: -0.02,inactive: 0.049,inactive: -0.128,inactive: -0.012,inactive: -0.009,inactive: 0.001,inactive: 0.02,inactive: 0.024,inactive: -0.02
RPS8 (UniProt P62241),inactive: -0.05,inactive: 0.403,inactive: 0.057,inactive: 0.154,inactive: -0.11,inactive: -0.19,inactive: -0.054,inactive: -0.235,inactive: 0.172,inactive: -0.243
RNMT isoform 2 (UniProt O43148),inactive: -0.053,inactive: 0.087,inactive: -0.021,inactive: 0.046,inactive: -0.04,inactive: 0.014,inactive: -0.026,inactive: 0,inactive: 0.008,inactive: -0.037
RPAP3 (UniProt Q9H6T3),inactive: 0.017,inactive: 0.032,inactive: -0.007,inactive: 0.004,inactive: -0.063,inactive: 0.059,inactive: -0.041,inactive: -0.105,inactive: 0.022,inactive: 0.017
RPL18 (UniProt Q07020),inactive: -0.144,inactive: 0.718,inactive: -0.042,inactive: 0.399,inactive: -0.218,inactive: -0.191,inactive: -0.071,inactive: -0.514,inactive: 0.373,inactive: -0.236
RPL30 (UniProt P62888),inactive: -0.106,inactive: 0.405,inactive: -0.056,inactive: 0.318,inactive: -0.194,inactive: -0.198,inactive: -0.083,inactive: -0.38,inactive: 0.357,inactive: -0.261
RPL39P5 (UniProt Q59GN2),inactive: -0.021,inactive: 0.635,inactive: -0.072,inactive: 0.199,inactive: -0.308,inactive: -0.231,inactive: -0.047,inactive: -0.16,inactive: 0.216,inactive: -0.104
RPS12 (UniProt P25398),inactive: -0.009,inactive: 0.018,inactive: -0.026,inactive: 0.048,inactive: -0.17,inactive: -0.057,inactive: -0.02,inactive: -0.159,inactive: 0.062,inactive: -0.033
RPP40 (UniProt O75818),inactive: -0.029,inactive: 0.036,inactive: -0.026,inactive: -0.033,inactive: -0.07,inactive: 0.002,inactive: -0.008,inactive: -0.014,inactive: 0.058,inactive: 0.022
RPS17 (UniProt P08708),inactive: -0.036,inactive: 0.105,inactive: -0.001,inactive: 0.094,inactive: -0.09,inactive: -0.064,inactive: -0.035,inactive: -0.118,inactive: 0.045,inactive: -0.07
RPP38 (UniProt P78345),inactive: -0.033,inactive: 0.021,inactive: 0.011,inactive: 0.05,inactive: -0.092,inactive: 0,inactive: 0.005,inactive: -0.014,inactive: 0.01,inactive: -0.017
RP2 (UniProt O75695),inactive: 0.057,inactive: -0.132,inactive: 0.139,inactive: -0.087,inactive: 0.425,inactive: 0.044,inactive: 0.038,inactive: 0.038,inactive: 0.122,inactive: 0.022
RRM2B isoform 6 (UniProt Q7LG56),inactive: -0.138,inactive: -0.016,inactive: -0.048,inactive: 0.023,inactive: -0.032,inactive: -0.001,inactive: 0.02,inactive: 0.07,inactive: -0.013,inactive: 0.075
RNPS1 (UniProt Q15287),inactive: 0.062,inactive: 0.13,inactive: -0.014,inactive: 0.274,inactive: 0.024,inactive: -0.073,inactive: 0.04,inactive: -0.005,inactive: 0.075,inactive: -0.001
RP9 (UniProt Q8TA86),inactive: -0.086,inactive: 0.309,inactive: 0.007,inactive: 0.117,inactive: 0.028,inactive: 0.003,inactive: -0.035,inactive: -0.054,inactive: -0.01,inactive: -0.069
RPS21 (UniProt P63220),inactive: -0.033,inactive: 0.086,inactive: -0.021,inactive: 0.031,inactive: -0.069,inactive: 0.04,inactive: 0.002,inactive: -0.022,inactive: -0.027,inactive: -0.01
RPS5 (UniProt P46782),inactive: 0.004,inactive: 0.089,inactive: 0.011,inactive: 0.094,inactive: -0.11,inactive: -0.056,inactive: -0.052,inactive: -0.126,inactive: 0.081,inactive: -0.099

# Two entries from above in a different format.
Target	log2 fold change [1]	log2 fold change [2]	log2 fold change [3]	log2 fold change [4]	log2 fold change [5]	log2 fold change [6]	log2 fold change [7]	log2 fold change [8]	log2 fold change [9]	log2 fold change [10]
ROCK1 (UniProt Q13464)	inactive: 0.037	inactive: -0.028	inactive: 0.003	inactive: -0.005	inactive: 0.067	active: 0.246	inactive: -0.012	inactive: -0.005	inactive: 0.012	inactive: -0.012
RPAP3 (UniProt Q9H6T3)	inactive: 0.017	inactive: 0.032	inactive: -0.007	inactive: 0.004	inactive: -0.063	inactive: 0.059	inactive: -0.041	inactive: -0.105	inactive: 0.022	inactive: 0.017
